This passage reports binding results from paper PMC6801735.

Sequences of proteins named here, by UniProt entry; tags and fusion partners are left off. Residues count along the entry.
UniProt O14763, residues 56-211: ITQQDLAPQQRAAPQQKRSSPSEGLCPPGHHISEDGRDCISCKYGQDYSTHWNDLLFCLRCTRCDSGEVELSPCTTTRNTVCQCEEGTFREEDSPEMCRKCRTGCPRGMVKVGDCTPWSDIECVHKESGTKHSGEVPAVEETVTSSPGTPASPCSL

The target of test [1] is death receptor 5 (DR5) ectodomain (human) (UniProt O14763). In words: SEC; SEC of recombinant DR5 after IMAC; oligomers seen before the buffer was changed to acetate pH 5.0; both purified. A general note: SEC sorts molecules by how far they enter the pores of the column.
Test [2] shares this target. In words: SDS-PAGE under non-reducing and reducing conditions, with western blot; purified DR5 ectodomain (5 ug per lane) run with or without dithiotreitol; band around 40,000 only under non-reducing conditions; both purified.

These are yes or no findings as the source states them, for the method shown. Some entries that bind do so weakly or less than the wild type.

Consider “death receptor 5 (DR5) ectodomain (from UniProt O14763 56-211) (domain or fragment)”, for which the binding entry in test [1] and in test [2] was “binds” each time.
